Data taken from PMC13267291, “In vivo functional profiling and structural characterization of the human GLP1R A316T variant” (Science Advances, 2026).
No constants are given. Whether binding was seen depends on the method and setting. Binding seen in cells or lysates may run through a third protein. Some results given as binding are weak or reduced against the parent protein; the word gives no strength.

The chains behind the UniProt entries cited, without tags or fusion partners. Where a name states a change or a piece, a line headed by the entry shows the natural chain unless it says otherwise. A line that says so, or that is headed by a name, gives the form on record, which may keep a tag or linker. Residues count along the entry.
hGLP1R^WT-SmBiT (P43220, residues 24-463): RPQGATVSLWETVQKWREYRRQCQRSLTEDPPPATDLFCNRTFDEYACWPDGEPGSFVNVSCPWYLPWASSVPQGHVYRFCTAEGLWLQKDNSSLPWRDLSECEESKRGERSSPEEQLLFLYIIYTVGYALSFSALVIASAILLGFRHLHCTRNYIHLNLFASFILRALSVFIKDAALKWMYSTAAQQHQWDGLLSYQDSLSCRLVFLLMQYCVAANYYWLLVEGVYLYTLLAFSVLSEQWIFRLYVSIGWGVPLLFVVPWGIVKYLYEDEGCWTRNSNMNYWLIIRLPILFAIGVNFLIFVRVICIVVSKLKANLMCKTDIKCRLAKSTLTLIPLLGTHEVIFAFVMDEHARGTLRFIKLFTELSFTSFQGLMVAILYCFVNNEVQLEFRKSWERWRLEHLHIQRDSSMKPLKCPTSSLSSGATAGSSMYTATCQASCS
hGLP1R^A316T-SmBiT (P43220, form named): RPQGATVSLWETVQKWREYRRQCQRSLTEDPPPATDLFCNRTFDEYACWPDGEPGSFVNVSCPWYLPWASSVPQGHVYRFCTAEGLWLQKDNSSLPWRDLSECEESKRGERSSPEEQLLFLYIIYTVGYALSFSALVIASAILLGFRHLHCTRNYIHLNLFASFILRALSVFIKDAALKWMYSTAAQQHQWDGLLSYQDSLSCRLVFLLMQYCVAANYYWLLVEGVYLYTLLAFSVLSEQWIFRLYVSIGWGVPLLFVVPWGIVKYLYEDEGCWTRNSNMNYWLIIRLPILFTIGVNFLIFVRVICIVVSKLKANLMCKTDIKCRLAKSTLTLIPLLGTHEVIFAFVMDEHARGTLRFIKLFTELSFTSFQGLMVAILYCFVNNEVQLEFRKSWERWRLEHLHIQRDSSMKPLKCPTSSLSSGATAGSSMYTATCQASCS

Tests used:
[1] = molecular target: hGLP1R^A316T-SmBiT (human) (UniProt P43220); assay: split reporter; NanoBiT complementation in live INS-1 832/3 Glp1r−/− cells cotransfected with hGLP1R^WT or ^A316T-SmBiT and LgBiT-mini-Gs or LgBiT–β-arrestin 2; HBSS with furimazine, 37°C; baseline (vehicle) and after GLP-1, exendin-4 or exendin-F1
hGLP1R^WT-SmBiT (human) = hGLP1R^WT-SmBiT (human) (UniProt P43220); assay: as above

LgBiT–β-arrestin 2 (from UniProt P32121 1-409)
binding [1]: binds
binding (hGLP1R^WT-SmBiT (human)): binds
